{"source": "patent US7423182B2", "about": "“Aminated polyamines” (University of Florida, priority 2004, dated 2008)", "key": {"[1]": {"tested_on": "Polyamine pools in L1210 cells", "experiment": "Effect on polyamine pools in L1210 cells", "format": "cell-based"}, "[2]": {"tested_on": "Polyamine pools in L1210 cells", "conditions": "cited from earlier work"}}, "note": "Read-outs that look alike come from different tables or passages of the source.", "data": [{"smiles": "CCNCCCNCCC(N)CNCCCNCC", "note": "(centres unmarked) [6-NH2-DESPM, 6 amino-N^1,N^12-diethylspermine]", "values": [{"measurement": "analogue amount", "setting": "[1]; 10 µM", "value": "3.52 ± 0.73", "unit": "nmol/10^6 cells"}, {"measurement": "analogue amount", "setting": "[1]; 50 µM", "value": "3.10 ± 0.12", "unit": "nmol/10^6 cells"}]}, {"smiles": "CCNCCCNCCCCNCCCNCC", "note": "[DESPM]", "values": [{"measurement": "analogue amount", "setting": "[2]; 30 µM", "value": 0.4, "unit": "nmol/10^6 cells"}, {"measurement": "analogue amount", "setting": "[2]; 150 µM", "value": 1.13, "unit": "nmol/10^6 cells"}]}, {"smiles": "FC(F)(F)CNCCCNCCCCNCCCNCC(F)(F)F", "note": "[FDESPM]", "values": [{"measurement": "analogue amount", "setting": "[2]; 100 µM", "value": "<0.02", "unit": "nmol/10^6 cells"}]}]}
